In the supplement of paper PMC9233669:
This sample is rich in variants without activity.

How the values were obtained:
biotinyl-Trp-oxazolone = experiment: self-aminoacylation, catalytic enhancement (BWO) (fold over background); higher = more active; k-Seq, kA / k0A0; sequences stand for … in GGGAAUGGAUCCACAUCUACGAAUUC…UUCACUGCAGACUUGACGAAGCUG
Method in brief: (§1)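 Each biotinyl-aminoacyl-oxazolone, at 2–1250 μM, was incubated with mutagenized RNA pools (0.43 μM) carrying a 21-nt variable region. The 50 μL reactions contained HEPES/NaCl/KCl/MgCl2/CaCl2 buffer with 5% acetonitrile at pH 6.9–7.0 and ran for 90 minutes at room temperature. After streptavidin capture, RNA was measured by qPCR in triplicate and by Illumina sequencing, and catalytic enhancement was calculated as median kA over the uncatalyzed rate from a pseudo-first-order fit of per-sequence fraction reacted.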

biotinyl-Leu-oxazolone = experiment: self-aminoacylation, catalytic enhancement (BLO) (fold over background); higher = more active; k-Seq, kA / k0A0; sequences stand for … in GGGAAUGGAUCCACAUCUACGAAUUC…UUCACUGCAGACUUGACGAAGCUG
Method in brief: as §1

biotinyl-Val-oxazolone = experiment: self-aminoacylation, catalytic enhancement (BVO) (fold over background); higher = more active; k-Seq, kA / k0A0; sequences stand for … in GGGAAUGGAUCCACAUCUACGAAUUC…UUCACUGCAGACUUGACGAAGCUG
Method in brief: as §1

biotinyl-Ile-oxazolone = experiment: self-aminoacylation, catalytic enhancement (BIO) (fold over background); higher = more active; k-Seq, kA / k0A0; sequences stand for … in GGGAAUGGAUCCACAUCUACGAAUUC…UUCACUGCAGACUUGACGAAGCUG
Method in brief: as §1

biotinyl-Met-oxazolone = experiment: self-aminoacylation, catalytic enhancement (BMO) (fold over background); higher = more active; k-Seq, kA / k0A0; sequences stand for … in GGGAAUGGAUCCACAUCUACGAAUUC…UUCACUGCAGACUUGACGAAGCUG
Method in brief: as §1

Sequence	self-aminoacylation (biotinyl-Trp-oxazolone)	self-aminoacylation (biotinyl-Leu-oxazolone)	self-aminoacylation (biotinyl-Val-oxazolone)	self-aminoacylation (biotinyl-Ile-oxazolone)	self-aminoacylation (biotinyl-Met-oxazolone)
AAGUUAGCUAAUAGUCGCAAG [Fam3.1 aminoacylation ribozyme variant]	2.21	1.52	1.49	1.78	1.6
AAGUUAGCUAAGAGUCGCAAG [Fam3.1 aminoacylation ribozyme variant]	1.77	1.55	1.86	1.8	1.66
CCACACUUUAAGCAAUCGGGC [Fam1B.1 aminoacylation ribozyme variant]	1.01	1.65	1.34	1.61	1.63
AAGCUUGCUAUUAGUCGCAAG [Fam3.1 aminoacylation ribozyme variant]	1.37	–	1.73	1.83	–
AAAGUUGCUAAUAGUCGCAAG [Fam3.1 aminoacylation ribozyme variant]	1.96	1.94	1.82	1.83	–
CCACAGUUCAAGCAAUCGCUC [Fam1B.1 aminoacylation ribozyme variant]	1.96	–	1.76	1.98	1.65
AUUCACCUAGGUCAGCGGUUG [Fam2.2 aminoacylation ribozyme variant]	1.51	1.96	1.68	1.81	–
UUUCACCUAGGUCAUCGGGUC [Fam2.2 aminoacylation ribozyme variant]	1.86	1.72	–	1.58	1.46
AACUUAGCUAAUAGUCGCAAG [Fam3.1 aminoacylation ribozyme variant]	1.66	–	1.83	–	–
AUUCGCCUAGGUCAUAGGGUG [Fam2.2 aminoacylation ribozyme variant]	1.72	–	1.87	1.58	–
AUUCACCUAGGCCAUCGGCUG [Fam2.2 aminoacylation ribozyme variant]	1.62	–	2.59	1.81	–
AUUCACCUAGGGCAUCGGGGG [Fam2.2 aminoacylation ribozyme variant]	1.76	–	–	–	–
AAAUUUGCUAACAGUCGCAAG [Fam3.1 aminoacylation ribozyme variant]	1.44	1.57	1.64	–	1.3
UAGUUUGUUAAUAGUCGCAAG [Fam3.1 aminoacylation ribozyme variant]	1.96	–	1.83	1.88	1.63
GUCCUUCAAACAAUCGGUCUG [Fam1A.1 aminoacylation ribozyme variant]	–	1.49	1.52	1.31	1.35
CUAGUACAAACAAUCGGUCUG [Fam1A.1 aminoacylation ribozyme variant]	–	0.802	0.775	0.837	0.725
CUACUUCAAAGAAUUGGUCUG [Fam1A.1 aminoacylation ribozyme variant]	–	1.08	0.912	1.18	0.954
AUUCUCCUAGGUCAUAGGGUG [Fam2.2 aminoacylation ribozyme variant]	1.93	–	1.72	1.84	–
AUUCACCUAGGCCAUCGGGUA [Fam2.2 aminoacylation ribozyme variant]	–	3.81	2.21	2.42	3.31
CCACUCUUCGAGCAAUCGGUC [Fam1B.1 aminoacylation ribozyme variant]	–	0.964	1.24	1.19	1.03
AUUCCCCUUGUCAUCGAGUGA [Fam2.1 aminoacylation ribozyme variant]	–	11.4	7.45	6.44	11.1
AAGUUUCCUAAUAGUCGCACG [Fam3.1 aminoacylation ribozyme variant]	–	1.7	1.74	1.57	1.49
AUUCACCUUGGUCAUCGGUUG [Fam2.2 aminoacylation ribozyme variant]	–	0.855	1.06	0.9	0.844
CCACACUUCAUGCAAUCGGCC [Fam1B.1 aminoacylation ribozyme variant]	1.5	–	–	–	–

Sequence	self-aminoacylation (biotinyl-Trp-oxazolone)	self-aminoacylation (biotinyl-Leu-oxazolone)	self-aminoacylation (biotinyl-Val-oxazolone)	self-aminoacylation (biotinyl-Ile-oxazolone)	self-aminoacylation (biotinyl-Met-oxazolone)
CCACUCCUCAAGCAAUCGGUC [Fam1B.1 aminoacylation ribozyme variant]	–	0.845	1.23	1.07	0.986
CCAGACUUCAAGAAAUCGGUC [Fam1B.1 aminoacylation ribozyme variant]	–	1.33	0.991	1.15	1.04
AUUCACCCAGCUCAUCGGGUG [Fam2.2 aminoacylation ribozyme variant]	1.96	–	–	–	–
CUACUUACAACAAUCGGUCUG [Fam1A.1 aminoacylation ribozyme variant]	–	0.81	0.749	0.878	0.874
CUACACUUCAAGCAGUCGGUC [Fam1B.1 aminoacylation ribozyme variant]	–	0.741	0.758	0.775	0.739
CUAAUUCAAACAAUCGGUCUG [Fam1A.1 aminoacylation ribozyme variant]	–	0.713	0.716	0.739	0.687
AUUCACCUAGGCUAUCGGGUG [Fam2.2 aminoacylation ribozyme variant]	–	4.84	3.06	2.43	3.76
CUACUUCAAACAAUCGGUUUC [Fam1A.1 aminoacylation ribozyme variant]	–	0.917	0.923	0.99	0.847
CUACUUCAAACAAUCGGUCGC [Fam1A.1 aminoacylation ribozyme variant]	–	1.84	1.25	1.2	1.75
AUUACUCUGGUCAACGAGUGA [Fam2.1 aminoacylation ribozyme variant]	–	5.72	2.76	3.12	5
AAGUUUGCUAAUAUUGGCAAG [Fam3.1 aminoacylation ribozyme variant]	–	0.847	0.784	0.773	0.894
AAGUUUCCUAAUAGUCGCAGG [Fam3.1 aminoacylation ribozyme variant]	1.91	–	1.42	–	–
CGACACUUCAAUCAAUCGGUC [Fam1B.1 aminoacylation ribozyme variant]	–	1.15	1.05	1.04	0.958
CAACUUCAAACAAUCCGUCUG [Fam1A.1 aminoacylation ribozyme variant]	–	0.998	1.1	1.3	1.12
CCACACUUCAAGCAGUCGCUC [Fam1B.1 aminoacylation ribozyme variant]	1.73	–	1.51	1.78	1.47
ACUGCCCUGGUCAUCGAGUGA [Fam2.1 aminoacylation ribozyme variant]	–	34.1	14.9	13.4	36
AUUCACCGAGGUCGUCGGGUG [Fam2.2 aminoacylation ribozyme variant]	–	3.03	2.55	2.55	3.16
CUUCUUCAACCAAUCGGUCUG [Fam1A.1 aminoacylation ribozyme variant]	–	0.885	0.708	0.68	0.783
CCACACUCCAAACAAUCGGUC [Fam1B.1 aminoacylation ribozyme variant]	–	1.09	1.31	0.982	0.917
CCAGACUUCAAGUAAUCGGUC [Fam1B.1 aminoacylation ribozyme variant]	–	1.22	1.02	1.02	1.15
AGUCACCAAGGUCAUCGGGUG [Fam2.2 aminoacylation ribozyme variant]	–	7.67	4.7	4.38	6.59
AAAUUUUCUAAUAGUCGCAAG [Fam3.1 aminoacylation ribozyme variant]	1.81	–	–	–	1.73
CCAUACUUCAACCAAUCGGUC [Fam1B.1 aminoacylation ribozyme variant]	–	1.3	1.04	1.1	0.989
